# US20260325541A1, “BENZGALANTAMINE FOR TREATING PERSISTENT POST-CONCUSSION SYMPTOMS” (Alpha Cognition Inc., priority 2023, published 2026)
# At least one structure is not confirmed: it was looked up by name or label, or the drawing left a doubt.
# How the values were obtained:
# [1] = system: mice after repeated blast mild traumatic brain injury (blast mTBI); assay: Thermal Gradient Ring (TGR) assessment of heat/pain sensitivity after repetitive blast mTBI; type: in vivo, C57Bl/6 mice; conditions: 3.0 mg/kg, 30 days treatment, then 60-day washout; FIG. 20
# CD68 = CD68 quantitative immunohistochemistry after repetitive blast mTBI; type: in vivo, C57Bl/6 mice; conditions: 3 mg/kg BID for 30 days; one month after blast; FIG. 19
# [2] = system: young adult male rats after moderate TBI induced by controlled cortical impact (CCI); assay: Fore- and hindlimb foot-fault test after TBI; type: in vivo, male Wistar rats; conditions: 4.5 mg/kg IN twice daily
compound,measurement,setting,value
"COc1ccc2c3c1O[C@H]1C[C@@H](OC(=O)c4ccccc4)C=C[C@@]31CCN(C)C2 [ALPHA-1062, (4aS,6R,8aS)-5,6,9,10,11,12-hexahydro-3-methoxy-11-methyl-4aH-[1]benzofuro[3a,3,2-ef][2]benzazepin-6-ol benzoate]",shift of thermal preference relative to vehicle + blast exposed animals,[1],leftward shift
same,similarity of thermal preference to sham controls,[1],more similar to vehicle treated/sham (no blast) controls than vehicle treated/blast exposed animals
same,time in hot zones / cool zones vs untreated blasted animals,[1],spent less time in hot zones (and more time in cool zones) than untreated blasted animals
same,CD68 expression vs vehicle treated blast injured animals,CD68,increased CD68 expression widely throughout quantitated brain regions
same,acute preservation of locomotor skill (fore- and hindlimb foot-fault) vs vehicle,[2]; from first day of treatment,statistically significant preservation of locomotor skill from the first day of treatment
same,recovery of locomotor skill (foot-fault) vs vehicle,[2]; throughout the 35-day study,persistently statistically significantly improved recovery throughout the study
